Data reported in patent US12649907B2, “Alternate detergents for viral inactivation” (AMGEN INC., priority 2019, dated 2026).
Some of these results come from one statement about several compounds together. At least one structure is not confirmed: it was looked up by name or label, or the drawing left a doubt.

System: xMuLV
Test: Kinetic study of detergents, TCID50 LRV in host cell culture fluid matrices
Assay type: cell-based, xenotropic murine leukemia virus
Settings: all three therapeutic modalities

Row | SMILES | Time to complete inactivation of xMuLV
1 | CCCCCCCCCCCCOCCOCCOCCOCCOCCOCCOCCOCCO [Anapoe C12E8, 3,6,9,12,15,18,21,24-oxtaoxahexatriacontan-1-ol] | ≤ 30 s
2 | CCCCCCCS[C@@H]1O[C@H](CO)[C@@H](O)[C@H](O)[C@H]1O [N-heptyl-β-D-thioglucopyranoside, Heptyl-β-D-1-thioglucopyranoside] | ≤ 30 s
